# According to PubChem BioAssay AID540256 (National Center for Advancing Translational Sciences (NCATS), 2011):
# Hit rate of the full screen: of about 300,000 compounds, about 3,700 (1.2%) were called active. Inconclusive results, whose numbers are uncertain, are shown with a selection of clear calls. The call rests on the fitted dose curve; tested in HEK293 cells. Potencies of inconclusive entries are doubtful fits and often do not repeat.
# Assay: qHTS for Inhibitors of binding or entry into cells for Lassa Virus; further: nearly all actives have a fitted effect of over 50% in size
# Details: Lassa virus pseudotype entry inhibition, cell reporter; activity change, negative = inhibition: at 37.9 µM (top of the series) unless noted
# On the % scale 0 is the no-effect control and ±100 the full control effect; potency means the concentration at half of the fitted maximal effect.
Compound,"activity change, negative = inhibition",Potency
COc1ccc(C(C)=O)cc1COC(=O)c1ccc(N)c([N+](=O)[O-])c1,inactive: 10.8%,–
CCN1CCN(C(=O)/C=C/c2ccc(OC)c(OC)c2)CC1,inactive: -2.25%,–
c1ccc2c(c1)ncn2CCCOc1ccc2c(c1)CCC2,–,"inconclusive: 29.1 µM [activator, single point]"
O=C(NC(=S)NC1CCCC1)c1ccccc1,inactive: 7.98% [at 46.1 µM],–
COc1ccc(/C=C/C(=O)NC(=S)NNC(=O)c2cccnc2)cc1,–,"inconclusive: 6.31 µM [inhibitor, single point]"
Cc1cccc(-c2c3c(=O)n(C)c(=O)n(C)c3cn2C2CCCCC2)c1,–,"inconclusive: 18.3 µM [inhibitor, single point]"
CCc1ccc(NC(=O)C(CC)n2nnc(C(=O)OC)c2C(=O)OC)cc1 (stereo unspecified),–,"inconclusive: 14.1 µM [activator, single point]"
CCc1cccc(C)c1N=Cc1c(O)c2ccccc2oc1=O,–,"inconclusive: 12.6 µM [inhibitor, single point]"
CCN(CCCNC(=O)c1cc2c(=O)[nH]c3ccc(C)cc3c2s1)c1ccc(C)cc1,inactive: 12.1% [at 46.1 µM],–
C=C(C)COc1ccc2c(C)c(CC(=O)OC)c(=O)oc2c1C,–,"inconclusive: 3.55 µM [activator, single point]"
CCC(NC(=O)C1CCC1)c1ccccc1 (stereo unspecified),–,"inconclusive: 20.6 µM [activator, partial curve, poor fit]"
N#Cc1cnn(-c2ccccc2)c1N,–,"inconclusive: 32.6 µM [activator, partial curve, poor fit]"
CCCCN(CCCC)CCNC(=O)CN1C(=O)CSc2ccc(S(=O)(=O)N3CCCCC3)cc21,inactive: 20.1% [at 46.1 µM],–
Cc1cc(Cl)c(S(=O)(=O)NCc2cccnc2)cc1OCC(=O)NC1CCCCC1,inactive: -11.6%,–
COc1ccccc1N(CC(=O)Nc1ccccc1F)S(C)(=O)=O,–,"inconclusive: 1 µM [inhibitor, partial curve, poor fit]"
Cc1cc(O)c(C2=Nc3ccccc3SC(c3ccc(Cl)cc3)C2)c(=O)o1 (stereo unspecified),–,"inconclusive: 0.731 µM [activator, full curve, poor fit]"
CCOC(=O)c1ccc(NC(=O)CCS(=O)(=O)c2ccc3c(c2)oc(=O)n3C)cc1,–,"inconclusive: 7.94 µM [activator, partial curve]"
CN(C)C(=Nc1ccccc1)P(=S)(N(C)C)N(C)C,–,"inconclusive: 6.31 µM [inhibitor, partial curve, poor fit]"
CCNC(=O)C1CC(=O)N(Cc2ccc(F)cc2)C(=Nc2ccc(OC)cc2)S1 (stereo unspecified),–,"inconclusive: 2.59 µM [inhibitor, partial curve]"
CCOC(=O)c1sc(=N)n(-c2ccc(OC)cc2)c1C,–,"inconclusive: 0.251 µM [inhibitor, full curve, poor fit]"
CCOc1nc(NCCc2ccc(OC)c(OC)c2)nc(N2CCN(c3ccc(OC)cc3)CC2)n1,–,"inconclusive: 0.184 µM [activator, single point]"
Cc1ccc(-c2nnc(-c3ccc(NC(=O)c4cccs4)cc3)o2)cc1,–,active: 7.3 µM
CCCCCn1c(=O)[nH]c2cc(C(=O)NCc3ccc(OC)cc3)ccc2c1=O,inactive: 8.19% [at 46.1 µM],–
CCOC(=O)C1=C(c2ccccc2)NC(=O)NC1c1cc(Cl)c(O)c(OC)c1 (stereo unspecified),inactive: -18.5% [at 46.1 µM],–

Compound,"activity change, negative = inhibition",Potency
CCCCn1c(O)c(C(CC)=Nc2ccc(OCC)cc2)c(=O)[nH]c1=O,–,active: 0.326 µM
CC(=O)c1ccc(N2CCN(C(=S)Nc3ccc(Oc4ccccc4)cc3)CC2)cc1,–,"inconclusive: 7.08 µM [inhibitor, partial curve, poor fit]"
O=C(COC(=O)c1cccnc1Cl)NCCCc1ccccc1,inactive: 10.4%,–
O=[N+]([O-])c1ccc2c(c1)Cc1cc(O)ccc1-2,inactive: 11.4%,–
Cc1cc(C(=O)COC(=O)c2cccc(NS(C)(=O)=O)c2)c(C)n1CC1CCCO1 (stereo unspecified),–,active: 10 µM
O=C(NCCCN1CCOCC1)c1sc2cc(F)ccc2c1Cl,–,"inconclusive: 35.5 µM [activator, single point]"
C/C(=N\N1CCCCCC1)c1c(O)n(-c2ccc(C)cc2)c(=O)[nH]c1=O,–,"inconclusive: 1.84 µM [inhibitor, full curve]"
NC(=O)NC(CC(=O)Nc1cccnc1)c1cccc(Br)c1 (stereo unspecified),inactive: 22.1%,–
CNc1oc(Cc2ccccc2)nc1S(=O)(=O)c1ccc(Cl)cc1,–,"inconclusive: 4.11 µM [activator, full curve, poor fit]"
CCOc1ccc(NS(=O)(=O)c2ccc(C(=O)N3CCCC(C)C3)cc2)cc1 (stereo unspecified),–,"inconclusive: 35.5 µM [inhibitor, single point]"
Cc1ccc(NC(=O)C(=O)c2ccc(C)cc2)cc1,inactive: 25.5%,–
Cc1ccc(/C=C/C(=O)O)cc1S(=O)(=O)NC1CCS(=O)(=O)C1 (stereo unspecified),–,"inconclusive: 35.5 µM [activator, single point]"
O=C(Nc1cccc(S(=O)(=O)Nc2ccccc2Cl)c1)c1ccc(Cl)nc1,–,"inconclusive: 0.259 µM [inhibitor, partial curve]"
Cc1nc(NC(C)c2ccccc2)sc1C(=O)Nc1ccccc1 (stereo unspecified),–,"inconclusive: 18.3 µM [inhibitor, single point]"
CCC(CC)=NNC(=O)c1ccccc1OCc1ccc(F)cc1,–,"inconclusive: 1.12 µM [activator, full curve, poor fit]"
O=[N+]([O-])c1ccc(Oc2ccc(S(=O)(=O)N3CCOCC3)cc2)cc1,–,"inconclusive: 35.5 µM [inhibitor, partial curve, poor fit]"
CCN(CC)C(=O)c1ccc(COc2ccc(Cl)c(C)c2)o1,–,"inconclusive: 35.5 µM [inhibitor, single point]"
Cc1c(N2C(=O)c3ccc(Br)cc3C2=O)c(=O)n(-c2ccccc2)n1C,inactive: 4.78%,–
CCOC(=O)N1CCN(C(=O)CCSc2ccccc2)CC1,–,"inconclusive: 13 µM [inhibitor, partial curve]"
CNC(=O)c1c(NC(=O)CCS(=O)(=O)c2ccccc2)sc2c1CCN(C(=O)OC)C2,inactive: 2.84% [at 46.1 µM],–
CCOc1ccccc1CNC(=O)c1cnc2sc(N3CCCC3)nn2c1=O,inactive: 6.91% [at 46.1 µM],–
CCN(CC)c1nc(N2CCN(C)CC2)nc2ccccc12,–,"inconclusive: 35.5 µM [inhibitor, single point]"
O=C(Nc1ccc(N2CCN(C(=O)c3ccccc3)CC2)cc1)c1ccc2c(c1)OCCO2,–,"inconclusive: 11.2 µM [inhibitor, partial curve, poor fit]"
C/C=C/c1ccc(OCCCNC)c(OC)c1,–,"inconclusive: 4.61 µM [activator, single point]"

# An excerpt of these results, bar-delimited.
Compound | activity change, negative = inhibition | Potency
CCN(CCCNC(=O)c1cc2c(=O)[nH]c3ccc(C)cc3c2s1)c1ccc(C)cc1 | inactive: 12.1% [at 46.1 µM] | –
C=C(C)COc1ccc2c(C)c(CC(=O)OC)c(=O)oc2c1C | – | inconclusive: 3.55 µM [activator, single point]
CCC(NC(=O)C1CCC1)c1ccccc1 (stereo unspecified) | – | inconclusive: 20.6 µM [activator, partial curve, poor fit]
N#Cc1cnn(-c2ccccc2)c1N | – | inconclusive: 32.6 µM [activator, partial curve, poor fit]

# Next entries:

Compound,"activity change, negative = inhibition",Potency
Cc1ccc(-n2ncc3c(NCCc4ccccc4)ncnc32)cc1C,–,"inconclusive: 20 µM [inhibitor, single point]"
CCOC(=O)CSc1nc2sc3c(c2c(=O)n1Cc1ccccc1)CC(C)CC3 (stereo unspecified),inactive: 2.99% [at 46.1 µM],–
Cc1cccc(OCCCCn2nnc3sc4c(c3c2=O)CCC(C)C4)c1 (stereo unspecified),–,"inconclusive: 0.891 µM [activator, full curve, poor fit]"
O=C(Cn1nc(N2CCN(c3ccccc3)CC2)ccc1=O)NCc1cccc(Cl)c1,inactive: 2.32% [at 46.1 µM],–
COc1ccccc1NC(=O)c1ccc(NC(=O)C2CC2)cc1,–,"inconclusive: 35.5 µM [inhibitor, single point]"
CCc1cccc(CC)c1NC(=O)COC(=O)c1cccc(-c2ccc(OC(C)=O)cc2)c1,–,"inconclusive: 11.2 µM [activator, partial curve]"
O=C(C1CCCN1S(=O)(=O)c1ccc(Cl)cc1)N1CCCCC1 (stereo unspecified),inactive: 11.9%,–
Cc1ccc(C(=O)Sc2cccccc2=O)cc1,–,"inconclusive: 6.31 µM [inhibitor, single point]"
COc1ccc(-c2ncc3ccccn23)cc1OC,inactive: 5.18%,–
NC/C=C/C(=O)O,–,"inconclusive: 2.59 µM [inhibitor, single point]"
Cc1cc(Oc2nc3ccccn3c(=O)c2/C=C(\C#N)C(=O)NC2CCS(=O)(=O)C2)ccc1Cl (stereo unspecified),–,"inconclusive: 35.5 µM [inhibitor, partial curve, poor fit]"
COc1ccccc1CNC(=O)COC(=O)Cc1cccs1,–,"inconclusive: 11.2 µM [activator, single point]"
NC(=O)c1cc(-c2ccncc2)nc2ccc(Cl)cc12,–,"inconclusive: 35.5 µM [activator, single point]"
CCC(C)(C)NC(=O)C(c1ccc(C)cc1)N(Cc1cccs1)C(=O)c1ccc2c(c1)OCCO2 (stereo unspecified),–,"inconclusive: 18.3 µM [inhibitor, partial curve]"
CCCCCn1c(=O)c(C(=O)Nc2cnccn2)c(O)c2ccccc21,–,"inconclusive: 7.08 µM [inhibitor, partial curve, poor fit]"
O=C(c1ccc(=O)oc1)N1CCCc2ccccc21,inactive: 23.3%,–
Cc1ccc(N(CC(=O)N/N=C/c2cccs2)S(C)(=O)=O)cc1Cl,–,"inconclusive: 14.1 µM [inhibitor, single point]"
CCS(=O)(=O)c1ccc(C(=O)Nc2cccc(Cl)c2)c(Cl)c1Cl,–,"inconclusive: 11.2 µM [inhibitor, single point]"
c1nnc(NC2=NCCC2)s1,inactive: -24.9%,–
CCn1nccc1C(=O)Nc1ccc(Cl)c(Cl)c1,–,"inconclusive: 0.0046 µM [inhibitor, full curve, poor fit]"
Cc1sc(NC(=O)C2C3CCC(C3)C2C(=O)O)c(C(N)=O)c1-c1ccc(C(C)(C)C)cc1 (stereo unspecified),–,"inconclusive: 16.4 µM [inhibitor, partial curve]"
O=C(Cc1ccccc1F)Nc1ccc(SC(F)F)cc1,–,"inconclusive: 20.6 µM [inhibitor, partial curve, poor fit]"
O=C(NCCCN1CCOCC1)c1cc(C(=O)C2CCCCC2)c[nH]1,inactive: -4.22%,–
